# Results taken from patent US20020086278A1, “CHROMOGENIC MEDIA CONTAINING BLOOD OR HEMIN” (priority 1999, published 2002).
# At least one structure is not confirmed: it was looked up by name or label, or the drawing left a doubt.
# Legend:
# Assay in all cases: Example 1: growth and colony color on plates surface-spread with chromogen
# Assay type in all cases: cell-based
# [1] = test system: Staphylococcus aureus 25923; conditions: S. aureus 25923
# Escherichia coli 25922 = conditions: E. coli 25922
# S. epidermidis 12228 = conditions: S. epi 12228
smiles,measurement,setting,value
"OC[C@H]1O[C@@H](Oc2c[nH]c3ccc(Br)c(Cl)c23)[C@H](O)[C@@H](O)[C@H]1O [X-Gal, 5-Br-4-Cl-3-indolyl-β-D-galactopyranoside]",Growth,[1]; Choc II,4+
same,Growth,[1]; TSA II 5SB,4+
same,Growth,[1]; TSA Plain,4+
same,Growth,Escherichia coli 25922; Choc II,4+
same,Growth,Escherichia coli 25922; TSA II 5SB,4+
same,Growth,Escherichia coli 25922; TSA Plain,4+
same,Growth,S. epidermidis 12228; Choc II,4+
same,Growth,S. epidermidis 12228; TSA II 5SB,4+
same,Growth,S. epidermidis 12228; TSA Plain,1+
"OC[C@H]1O[C@@H](Oc2c[nH]c3ccc(Br)c(Cl)c23)[C@H](O)[C@@H](O)[C@@H]1O [X-Glucoside, 5-Br-4-Cl-3-indolyl-β-D-glucopyranoside]",Growth,[1]; Choc II,4+
same,Growth,[1]; TSA II 5SB,4+
same,Growth,[1]; TSA Plain,4+
same,Growth,Escherichia coli 25922; Choc II,4+
same,Growth,Escherichia coli 25922; TSA Plain,4+
same,Growth,S. epidermidis 12228; Choc II,4+
same,Growth,S. epidermidis 12228; TSA II 5SB,4+
same,Growth,S. epidermidis 12228; TSA Plain,4+
